In patent US20230085269A1:
Results are given in words; binding and its absence hold for the method and conditions named. Some entries that bind do so weakly or less than the wild type.

Protein sequences, listed by entry. Tags and fused reporters are not part of them. Residues count along the entry.
UniProt P15941, residues 24-1255: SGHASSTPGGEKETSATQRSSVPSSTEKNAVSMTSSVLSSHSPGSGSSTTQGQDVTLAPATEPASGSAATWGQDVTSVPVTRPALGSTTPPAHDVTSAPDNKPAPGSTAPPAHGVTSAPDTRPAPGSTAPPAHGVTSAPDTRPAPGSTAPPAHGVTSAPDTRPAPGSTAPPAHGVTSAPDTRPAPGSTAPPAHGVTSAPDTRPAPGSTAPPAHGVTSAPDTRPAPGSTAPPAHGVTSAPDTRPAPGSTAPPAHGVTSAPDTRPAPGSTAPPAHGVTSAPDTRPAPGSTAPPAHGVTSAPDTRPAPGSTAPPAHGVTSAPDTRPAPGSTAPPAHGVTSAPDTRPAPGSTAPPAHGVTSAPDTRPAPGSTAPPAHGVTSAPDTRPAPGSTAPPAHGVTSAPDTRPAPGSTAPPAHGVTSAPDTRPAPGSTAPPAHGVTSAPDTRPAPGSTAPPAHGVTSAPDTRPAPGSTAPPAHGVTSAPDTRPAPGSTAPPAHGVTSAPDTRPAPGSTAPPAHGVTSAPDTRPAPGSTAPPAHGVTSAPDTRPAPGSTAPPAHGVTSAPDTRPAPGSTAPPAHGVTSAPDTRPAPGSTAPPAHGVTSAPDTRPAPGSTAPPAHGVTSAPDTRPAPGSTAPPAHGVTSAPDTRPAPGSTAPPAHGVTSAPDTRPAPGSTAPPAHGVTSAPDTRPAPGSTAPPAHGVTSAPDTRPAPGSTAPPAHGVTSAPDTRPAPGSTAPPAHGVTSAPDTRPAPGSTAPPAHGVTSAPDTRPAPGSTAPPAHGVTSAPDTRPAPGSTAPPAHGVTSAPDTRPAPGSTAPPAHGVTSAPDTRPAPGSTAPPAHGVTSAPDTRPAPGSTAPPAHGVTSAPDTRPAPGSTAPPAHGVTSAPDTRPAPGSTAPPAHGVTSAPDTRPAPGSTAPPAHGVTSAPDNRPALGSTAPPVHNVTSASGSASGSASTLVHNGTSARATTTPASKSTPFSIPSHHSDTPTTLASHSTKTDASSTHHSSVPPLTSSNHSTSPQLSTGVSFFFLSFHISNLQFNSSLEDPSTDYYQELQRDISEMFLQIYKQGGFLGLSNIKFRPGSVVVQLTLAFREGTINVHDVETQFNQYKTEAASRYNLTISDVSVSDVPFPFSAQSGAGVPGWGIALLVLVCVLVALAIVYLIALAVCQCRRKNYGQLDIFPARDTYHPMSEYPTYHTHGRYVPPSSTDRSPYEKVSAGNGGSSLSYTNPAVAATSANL

Key:
[1] = target: MUC1-TM (full-length human transmembrane MUC1 protein) (human) (UniProt P15941); assay: immunohistochemistry, paraffin-embedded pancreatic and breast tissue
[2] = target: MUC1-TM (full-length human transmembrane MUC1 protein) (human) (UniProt P15941); assay: immunohistochemistry, tissue microarrays
[3] = target: MUC1-TM (full-length human transmembrane MUC1 protein) (human) (UniProt P15941); assay: immunohistochemistry on fresh frozen (FF) and paraffin embedded formaldehyde fixed (PEFF) tissue sections
[4] = target: MUC1-TM (full-length human transmembrane MUC1 protein) (human) (UniProt P15941); assay: flow cytometry on human cancer cell lines Colo357, T47D, ZR75
[5] = target: MUC1-TM (full-length human transmembrane MUC1 protein) (human) (UniProt P15941); assay: immunohistochemistry, paraffin embedded microarrays of lung, prostate, colon and breast carcinomas
[6] = target: MUC1-TM (full-length human transmembrane MUC1 protein) (human) (UniProt P15941); assay: flow cytometry on cells expressing MUC1-TM
[7] = target: MUC1-TM (full-length human transmembrane MUC1 protein) (human) (UniProt P15941); assay: immunohistochemistry of lung, prostate and colon carcinomas
[8] = target: MUC1-TM (full-length human transmembrane MUC1 protein) (human) (UniProt P15941); assay: flow cytometry on DA3-TM transfectants, DMB5F3 0.5 µg/ml; DA3-PAR cells negative
[9] = target: MUC1-TM (full-length human transmembrane MUC1 protein) (human) (UniProt P15941); assay: immunohistochemistry of pancreatic, breast, lung, prostate and colon carcinomas
[10] = target: MUC1-TM (full-length human transmembrane MUC1 protein) (human) (UniProt P15941); assay: immunohistochemistry, paraffin-embedded normal and malignant pancreatic tissue

Measured: binding

B1: DMB5F3 (antibody, V domains shown)
VH: DVQVQESGPDLVKPSQSLSLTCTVTGHSITRGSSWHWIRQFPGNKLEWMGYIHYGGGTSYNPSLKSRISITRDTSKNQFFLQLNSVTTEDTATFFCARYSYDITYRWFFDVWGAGTTVIVSS
VL: DILLTQSPAILSVSPGERVSFSCRASQNIGTSIHWYQQRKNGSPRLLIKYASESISGIPSRFSGSGSGTDFTLSINSVESEDMADYYCQQNNNWPLTFGAGTKLELK
binds: [1] | [2] | [3] | [4] | [5] | [6] | [7] | [8] | [9] | [10]
